Measurements as given in publication PMC8017931.
No constants are given. Whether binding was seen depends on the method and setting. Binding seen in cells or lysates may run through a third protein. A yes stands for co-enrichment or nearness to the bait. Other partners may have been found. Where a sequence is shown, tags or fusion partners need not be part of it.

Molecular target: T1, FLAG-tagged ARMC12 from Armc12-FLAG knock-in mice (mouse) (UniProt Q80X86)
T1 sequence: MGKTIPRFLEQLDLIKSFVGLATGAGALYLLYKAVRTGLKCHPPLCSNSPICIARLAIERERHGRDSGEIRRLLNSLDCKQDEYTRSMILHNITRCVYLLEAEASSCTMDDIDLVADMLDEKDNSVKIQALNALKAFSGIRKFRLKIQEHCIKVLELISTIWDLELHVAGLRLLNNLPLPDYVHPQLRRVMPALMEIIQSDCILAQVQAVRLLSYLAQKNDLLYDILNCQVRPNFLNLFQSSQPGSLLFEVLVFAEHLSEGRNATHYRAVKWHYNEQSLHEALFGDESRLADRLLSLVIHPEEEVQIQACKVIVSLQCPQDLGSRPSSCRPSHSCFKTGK
Experiment: affinity purification with mass spectrometry; mitochondria isolated from WT or FLAG-tagged Armc12 KI testis; extracted proteins immunoprecipitated with anti-FLAG antibody and identified by MS

binding: binds
B1: GK2 (protein, UniProt Q9WU65 1-554)
chain: MAASKQTSAGPLVGAVVQGTNSTRFLVFNSKTAELVCSHQVELTQEYPKEGWVEQDPKEILKSVYECIAKACEKLAEVNIDISNIKAIGVSNQRETTVVWDKFTGDPLYNAVVWLDLRTQSTVETLTKKIPGNSNFVKSKTGLPLSTYFSAVKLRWMLDNLRPIQKAVEEGRAMFGTIDSWLIWCMTGGVNGGIHCTDVTNACRTMLFNIHSLEWDKDLCDFFEIPMSILPNVCSSSEIYGLMTSGALEGVPISGCLGDQSAALVGQMCFHEGQAKNTYGTGCFLLCNTGQKCVFSEHGLLTTLAYKLGKNKPVFYALEGSVAIAGAVIRWLRDNFEIITTSGEVENLAREVGTSYGCYFVPAFSGLYAPYWEPSARGIICGLTQFTNKCHIAFAALEAVCFQTREILDAMNRDCGIPLSHLQVDGGMTNNRILMQLQADILHIPVVKSVMPETTALGAAMAAGAAEGVNVWSLEPEDLSTILMERYEPQIQATESEIRFSTWKRAVMKSMGWVTAKDPENGDNPVFSCLPLGFFIVSSMTLLIGARCVSTAEE
